Results published in doi:10.1101/798884.
No constants are given. Whether binding was seen depends on the method and setting. In cells and extracts the contact can be indirect. A yes stands for co-enrichment or nearness to the bait. Other partners may have been found.

Protein sequences, listed by entry. Tags and fused reporters are not part of them.
UniProt P35637: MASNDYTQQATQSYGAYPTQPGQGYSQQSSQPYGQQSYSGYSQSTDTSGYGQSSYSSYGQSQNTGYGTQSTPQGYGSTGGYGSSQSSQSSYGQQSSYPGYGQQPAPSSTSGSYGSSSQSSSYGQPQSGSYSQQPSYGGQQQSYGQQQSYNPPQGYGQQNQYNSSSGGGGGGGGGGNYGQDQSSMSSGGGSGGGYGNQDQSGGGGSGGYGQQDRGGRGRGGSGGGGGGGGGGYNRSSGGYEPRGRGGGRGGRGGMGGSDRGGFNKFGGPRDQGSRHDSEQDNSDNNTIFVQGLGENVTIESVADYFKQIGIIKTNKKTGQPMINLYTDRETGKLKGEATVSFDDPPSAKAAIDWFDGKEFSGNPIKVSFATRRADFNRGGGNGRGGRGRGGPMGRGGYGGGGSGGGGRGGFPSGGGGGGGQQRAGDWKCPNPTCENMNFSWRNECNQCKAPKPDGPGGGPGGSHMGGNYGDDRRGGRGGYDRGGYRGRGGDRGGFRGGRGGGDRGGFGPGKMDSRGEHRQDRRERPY
UniProt P13010: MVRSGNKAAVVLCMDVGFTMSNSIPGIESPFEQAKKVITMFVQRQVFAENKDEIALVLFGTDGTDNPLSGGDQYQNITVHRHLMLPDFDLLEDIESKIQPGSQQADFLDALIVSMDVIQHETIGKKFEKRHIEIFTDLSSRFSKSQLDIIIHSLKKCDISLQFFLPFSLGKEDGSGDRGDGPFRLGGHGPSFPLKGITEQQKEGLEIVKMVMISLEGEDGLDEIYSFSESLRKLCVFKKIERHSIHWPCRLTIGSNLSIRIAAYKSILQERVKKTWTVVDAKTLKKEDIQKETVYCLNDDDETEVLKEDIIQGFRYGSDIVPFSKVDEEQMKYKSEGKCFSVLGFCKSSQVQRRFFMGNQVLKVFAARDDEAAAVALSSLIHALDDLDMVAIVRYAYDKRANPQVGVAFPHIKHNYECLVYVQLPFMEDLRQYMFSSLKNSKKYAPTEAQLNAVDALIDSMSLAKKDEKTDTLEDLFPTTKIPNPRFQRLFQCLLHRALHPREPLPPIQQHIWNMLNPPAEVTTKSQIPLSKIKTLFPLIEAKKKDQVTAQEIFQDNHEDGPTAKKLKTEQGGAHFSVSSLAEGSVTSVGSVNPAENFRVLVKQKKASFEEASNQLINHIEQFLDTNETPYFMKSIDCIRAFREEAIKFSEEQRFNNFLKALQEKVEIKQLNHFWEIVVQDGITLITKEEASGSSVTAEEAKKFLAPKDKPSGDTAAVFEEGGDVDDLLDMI
UniProt Q12905: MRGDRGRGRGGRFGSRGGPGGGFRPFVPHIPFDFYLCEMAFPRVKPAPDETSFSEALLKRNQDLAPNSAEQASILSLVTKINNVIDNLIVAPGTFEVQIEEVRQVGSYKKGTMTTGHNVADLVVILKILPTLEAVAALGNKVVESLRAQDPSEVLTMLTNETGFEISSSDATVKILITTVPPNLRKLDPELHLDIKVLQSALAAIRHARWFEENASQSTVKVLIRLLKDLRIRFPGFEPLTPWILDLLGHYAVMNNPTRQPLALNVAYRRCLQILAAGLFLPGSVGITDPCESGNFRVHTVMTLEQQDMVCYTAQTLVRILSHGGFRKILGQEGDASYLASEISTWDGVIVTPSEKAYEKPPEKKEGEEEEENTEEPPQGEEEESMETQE

target: Flag-tagged FUS (Fused-in-sarcoma) (UniProt P35637); assay: affinity purification with mass spectrometry

binding	Molecule
binds	XRCC5/KU80 (from UniProt P13010 1-732)
binds	ILF2 (from UniProt Q12905 1-390)
binds	MATR3 (protein, UniProt P43243 1-847) MSKSFQQSSLSRDSQGHGRDLSAAGIGLLAAATQSLSMPASLGRMNQGTARLASLMNLGMSSSLNQQGAHSALSSASTSSHNLQSIFNIGSRGPLPLSSQHRGDADQASNILASFGLSARDLDELSRYPEDKITPENLPQILLQLKRRRTEEGPTLSYGRDGRSATREPPYRVPRDDWEEKRHFRRDSFDDRGPSLNPVLDYDHGSRSQESGYYDRMDYEDDRLRDGERCRDDSFFGETSHNYHKFDSEYERMGRGPGPLQERSLFEKKRGAPPSSNIEDFHGLLPKGYPHLCSICDLPVHSNKEWSQHINGASHSRRCQLLLEIYPEWNPDNDTGHTMGDPFMLQQSTNPAPGILGPPPPSFHLGGPAVGPRGNLGAGNGNLQGPRHMQKGRVETSRVVHIMDFQRGKNLRYQLLQLVEPFGVISNHLILNKINEAFIEMATTEDAQAAVDYYTTTPALVFGKPVRVHLSQKYKRIKKPEGKPDQKFDQKQELGRVIHLSNLPHSGYSDSAVLKLAEPYGKIKNYILMRMKSQAFIEMETREDAMAMVDHCLKKALWFQGRCVKVDLSEKYKKLVLRIPNRGIDLLKKDKSRKRSYSPDGKESPSDKKSKTDGSQKTESSTEGKEQEEKSGEDGEKDTKDDQTEQEPNMLLESEDELLVDEEEAAALLESGSSVGDETDLANLGDVASDGKKEPSDKAVKKDGSASAAAKKKLKKVDKIEELDQENEAALENGIKNEENTEPGAESSENADDPNKDTSENADGQSDENKDDYTIPDEYRIGPYQPNVPVGIDYVIPKTGFYCKLCSLFYTNEEVAKNTHCSSLPHYQKLKKFLNKLAEERRQKKET
